In the DeepSol protein solubility set:

Experiment: soluble on expression in E. coli; label from the status in PepcDB or PDB records

Sequence	soluble on expression in E. coli
MKQSVSAEQIELKSSLPGSKKVYVDGPREGMKVPMREIEQSDTNGVPNPPIRVYDTSGPYTDPAYKVELEKGIPTPRHSWILERGDVEAYEGREVKPEDDGVKVASKHTPVFPQMDRKPLRAKQGANVTQMHYARNGIIKSEMEYVAIREGVDPEFVRKEIAEGRAILPANINHPEAEPMIIGRNFHVKVNANIGNSAVSSSIAEEVEKMTWATRWGADTIMDLSTGKNIHTTREWIIRNAPVPVGTVPIYQALEKVNGIAEDLTWEVYRDTLIEQAEQGVDYFTIHAGVLLRYIPITAKRTTGIVSRGGSIMAQWCLFHHKENFLYTHFEEICEIMKQYDVSFSLGDGLRPGSIADANDEAQFSELETLGELTKIAWKHDVQVMIEGPGHVPMHLIKENMEKELDICQGAPFYTLGPLTTDIAPGYDHITSAIGAAMIGWFGTAMLCYVTPKEHLGLPNKDDVREGVITYKIAAHAADLAKGHKTAHQRDDALSKARFEFRWRDQFNLSLDPERAMEYHDETLPAEGAKTAHFCSMCGPKFCSMRISHDIREYAKENDLETTEAIEKGMKEKAKEFKETGSHLYQ	not soluble
MLSKSTRLLRRCFQTDVDVIVIGGGHAGCESAAAAARCGSNTVLVTQNKNTIGEMSCNPSFGGIGKGHLIREVDALDGLCARICDKSAITYQALNRAQGPAVLGLRAQIDRKLYKTQMQNEINSTKRLEILEGEVAELLVENGKIVGIRMMNETVIRTKCVVITTGTFLRAQIYQGMKTWPAGRIGEKSSDRLSESFLKHGFELGRLRTGTPPRLMKDSINFSKFERVAPDRTPIPFSFLTKNVWISYEDQLPTYLGHTNDEVCRIGNENMHENYQVASETTSPRYCPSLESKLLRFPKLHHRLFLEHEGLDSPHIYPQGMSLTFKPEVQTQLLRAIPGLENVEIFQPGYGVQYDFVNPKQLKRTLETRKVEGMFLAGQINGTTGYEEAAAQGVVAGINASARAQNEPGMEVSRTEGYIGVLIDDLTSLGTNEPYRMLTSRAEFRLYLRPDNADIRLTELGRRHNAISDNRWAIFTETKGELNNLTQRTEEMKMSMVKWKRIIPKLAATSRNDGKVLSAFDLIHRYDLDKSDLELCLKDKNIGEDILERLKIEGRYQMEHERMKAKKQEIDRESATAIPDNTDFSTMRGMSLECIEKLERARPRNLAAATRISGITPEAIVVLMRHLKNPAPVRSSAV	not soluble
MPKYRSATTTHGRNMAGARALWRATGVKEEDFGKPIIAVVNSFTQFVPGHVHLKDLGQLVAREIEAAGGIAKEFNTIAVDDGIAMGHGGMLYSLPSRELIADSVEYMVNAHCADAMVCISNCDKITPGMLMAAMRLNIPAIFVSGGPMEAGKTKLSDQIIKLDLVDAMMQGADPKVSDAQSEQIERSACPTCGSCSGMFTANSMNCLTEALGLSQPGNGSLLATHADRKQLFLTAGQRIVELTKRYYEQDDASVLPRNIANKAAFENAIALDIAMGGSTNTVLHLLAAAQEGEVEFDMTDIDRMSRQVPHLCKVAPSTQKYHMEDVHRAGGVMGILGELQRAGLLKDQTRTVLGISLQEQLAQYDVKQTQDPAVHTMFRAGPAGIRTTQAFSQDCRWDTLDDDRQEGCIRDKAHAFSQDGGLAVLKGNLAIDGCIVKTAGVDESILKFRGPAVVYESQEDAVNGILGGQVKAGDVVVIRYEGPKGGPGMQEMLYPTTYLKSMGLGKQCALLTDGRFSGGTSGLSIGHASPEAANGGTIGLVRSGDSIAIDIPNRSITLEVSESELAARRAEQDKLGWKPVDRQRTVSLALKAYASMATSADKGAVRDKSKLEG	not soluble
MPSVQIGPPPASQSAIEAVRTVIITDEDLVKEKVCAICKEEFEVGEEGKELKCLHLYHSSCIVSWLNIHNTCPICRFEVNLGVSESNVDEGGSYNIDNDRSNRFRTRVCSLWPLRMMIDWVHNLIGKIPPPDIAFMAFLLCLYGF	soluble
MRGSHHHHHHGSMACPLEKALDVMVSTFHKYSGKEGDKFKLNKSELKELLTRELPSFLGKRTDEAAFQKLMSNLDSNRDNEVDFQEYCVFLSCIAMMCNEFFEGFPDKQPRKK	soluble
MSATKLTRREQRARAQHFIDTLEGTAFPNSKRIYITGTHPGVRVPMREIQLSPTLIGGSKEQPQYEENEAIPVYDTSGPYGDPQIAINVQQGLAKLRQPWIDARGDTEELTVRSSDYTKARLADDGLDELRFSGVLTPKRAKAGRRVTQLHYARQGIITPEMEFIAIRENMGRERIRSEVLRHQHPGMSFGAHLPENITAEFVRDEVAAGRAIIPANINHPESEPMIIGRNFLVKVNANIGNSAVTSSIEEEVEKLVWSTRWGADTVMDLSTGRYIHETREWILRNSPVPIGTVPIYQALEKVNGIAEDLTWEAFRDTLLEQAEQGVDYFTIHAGVLLRYVPMTAKRLTGIVSRGGSIMAKWCLSHHQENFLYQHFREICEICAAYDVSLSLGDGLRPGSIQDANDEAQFAELHTLGELTKIAWEYDVQVMIEGPGHVPMQMIRRNMTEELEHCHEAPFYTLGPLTTDIAPGYDHFTSGIGAAMIGWFGCAMLCYVTPKEHLGLPNKEDVKQGLITYKIAAHAADLAKGHPGAQIRDNAMSKARFEFRWEDQFNLALDPFTARAYHDETLPQESGKVAHFCSMCGPKFCSMKISQEVRDYAATQTIEMGMADMSENFRARGGEIYLRKEEA	soluble
MSLEAKQREGRARLVLVTGAARGIGLACAHRFARAGDRVVMADRDLAACTFEAERLGSRHVALQLDVSDEAAVEHAMDGLLQQFGAFDVVINNAGVVDRFARPLLDVPPEDIDRLIGVNLEGPYLVVRAALRTILAGRRGAAIVNVASGAALRALPGRAAYSMTKAGVIGMTRAMAIELGPQGIAVNAVLPGYIDTEILLALEREGKFDRAAAAGAIPMGRLGRTDEIAEAVHYLARGGYHCGSLLSVDGGVDAYGGSGKASTAVMPHRPVRAGDVACVTGGASGIGAVVADRLAGLGWLVAIIDSREIADGPHPAWQADIASEASVESAMAGIAGQLGPVTLLVNNAGIVEPMAKSADQALADFRRTIDVNVKGTIHASRAAARQMIGAGGGAIVNLSSITASLGLPGRNAYCASKSAVTMLTRSLACEWAAHGIRVNAVAPGYILTPAVQALLASGERDMNSVVRRIPVARLGQPDEVADAIAFLASDAASYVTGATLQVDGGYLASGHEGHHHHHH	soluble
MSLKIQFDFPASFWTEALPIGNGNLGAMVFGKVEKERIALNEDTLWSGYPKDWNNPKAKEVLPKVRELIAQEKYEEADQLSRDMMGPYTQSYLPFGDLNIFMDHGQVVAPHYHRELDLSTGIVTVTYTIGGVQYTRELFVTYPDRAIVVRLTASKEGFLSFRAKLDSLLRHVSSVGAEHYTISGTAPEHVSPSYYDEENPVRYGHPDMSQGMTFHGRLAAVNEGGSLKVDADGLHVMGATCATLYFSASTSFDPSTGASCLERDPSLRTIETIKAICKRGYKEIVNRHLEDYAKLFNRVSLHLGESIAPADMSTDQRIKEYGSRDLGLVELLFQYGRYLMIASSRPGTQPANLQGIWNEETRAPWSSNYTLNINAEMNYWPAETCNLAELHKPLIHFIERLAANGKKTAEINYGARGWVAHHNADLWGQTAPVGDFGHGDPVWAFWPMGGVWLTQHLWEHYTFGEDEAYLRDTAYPIMKEAALFCLDWLIENEAGYLVTSPSTSPEQRFRIGEKGYAVSSATTMDLSLIAECFDNCIQAAKRLSIDEDFVKALSDAKQRLLPLQIGKRGQLQEWSNDFEDEDVHHRHVSHLVGIYPGRLITEQSAPNLFEAAKTSLEIRGDEGTGWSLGWKISLWARFKDGNRCERLLSNMLTLIKEDESMQHRGGVYANLFGAHPPFQIDGNFSATAGIAEMLLQSHQGYLEFLPALPDSWKDGYVKGLRGRGGYEVDLAWTNGALVKVEIVSTKTQTCEVLTRISMRITESGEEVEGDVLDSGRMSFQVEKGKRYVLNRTTDGEGHHHHHH	soluble
MSLSNLPPAVGRSNAMSERHIASAPYPWPWNGQLHAHNTALIVIDMQTDFCGVGGYVDSMGYDLSLTRAPIEPIKALLAVMRPLGFTIIHTREGHRPDLSDLPANKRWRSQRIGAGIGDPGPCGKILVRGEPGWEIIEELAPLPGEIIIDKPGKGSFCATDLELILRTRGINNLILTGITTDVCVHTTMREANDRGFECVLLEDCCGATDPANHAAALSMVKMQGGVFGAVGHSSMFRDLFGAWTCTPQALRRLVPASISVRFAHSTRCRSRSAPAPSTPCSARTAPAKARWSKASSATARCNRAVFWSTTASMRSEGHHHHHH	not soluble
MSRPSSRAIYLHRKEYSQNLTSEPTLLQHRVEHLMTCKQGSQRVQGPEDALQKLFEMDAQGRVWSQDLILQVRDGWLQLLDIETKEELDSYRLDSIQAMNVALNTCSYNSILSITVQEPGLPGTSTLLFQCQEVGAERLKTSLQKALEEELEQSRPRLGGLQPGQDRWRGPAMERPLPMEQARYLEPGIPPEQPHQRTLEHSLPPSPRPLPRHTSAREPSAFTLPPPRRSSSPEDPERDEEVLNHVLRDIELFMGKLEKAQAKTSRKKKFGKKNKDQGGLTQAQYIDCFQKIKYSFNLLGRLATWLKETSAPELVHILFKSLNFILARCPEAGLAAQVISPLLTPKAINLLQSCLSPPESNLWMGLGPAWTTSRADWTGDEPLPYQPTFSDDWQLPEPSSQAPLGYQDPVSLRRGSHRLGSTSHFPQEKTHNHDPQPGDPNSRPSSPKPAQPALKMQVLYEFEARNPRELTVVQGEKLEVLDHSKRWWLVKNEAGRSGYIPSNILEPLQPGTPGTQGQSPSRVPMLRLSSRPEEVTDWLQAENFSTATVRTLGSLTGSQLLRIRPGELQMLCPQEAPRILSRLEAVRRMLGISP	soluble
MSSISNNPDFSSIDPAVLMSLLMKSSGSLPTPPDTHSDGSESPDSTASDSSDKKRRRKPESKDIVRVAEEAEAAAATCSSIPSSSDTKENETEEDQNMTCDTTTNNAQKPTEQTATSADVVTSSVPSGLEGVPSFLFSQFMAPSFQKQLEIFTSGNMMSATHSDTSPSDVDSVLDGGVVTAEETSSSKSPMMTSSDTPKTPLTASSPPHSSGSESRVMSPITHTNISDELSISTTPTVAFTPNGSIPSPGTGYSWSIRREGKLACPTPGCDGSGHQTGLYTHHRSLSGCPRRPDKTVIQMLALRQDTVLRCTTAGCSGKGHVNGNRTSHRSLSGCPIAHQEKLARKGIKTTPQRTKTPIKGISISDECPLDLTLSGLPAGLSAQQLLAAAQAGLIPSSQMMDALFQQFSQTQPLATLEEESKKENEMEVDVETTSDDIPTLIKEEEEVKCESPVPSVIPEIQSTPSRPVAAPVAPGSAEKSSPTSQMLLQMPGFSEALLKMTAPQVPFPQYSPQAALFGNQSALLAQIMLTQLQMQQGF	not soluble
PAAEEQPAAAPAQAAAPAAEQKPAAAAPAPAKADTPAPVGAPSRDGAKVHAGPAVRMLAREFGVELSEVKASGPKGRILKEDVQVFVKEQLQRAKSGGAGATGGAG	not soluble
SARVGSQNGVQMLSPSEIPQRDWFPSDFTFGAATSAYQIEGAWNEDGKGESNWDHFCHNHPERILDGSNSDIGANSYHMYKTDVRLLKEMGMDAYRFSISWPRILPKGTKEGGINPDGIKYYRNLINLLLENGIEPYVTIFHWDVPQALEEKYGGFLDKSHKSIVEDYTYFAKVCFDNFGDKVKNWLTFNDPQTFTSVSYGTGVFAPGRCSPGLDCAYPTGNSLVEPYTAGHNILLAHAEAVDLYNKHYKRDDTRIGLAFDVMGRVPYGTSFLDKQAEERSWDINLGWFLEPVVRGDYPFSMRSLARERLPFFKDEQKEKLAGSYNMLGLNYYTSRFSKNIDISPNYSPVLNTDDAYASQEVNGPDGKPIGPPMGNPWIYMYPEGLKDLLMIMKNKYGNPPIYITENGIGDVDTKETPLPMEAALNDYKRLDYIQRHIATLKESIDLGSNVQGYFAWSLLDNFEWFAGFTERYGIVYVDRNNNCTRYMKESAKWLKEFNTAKKPSKKILTPA	soluble
SLHPYRMEGYIIPPQQIEEMFETEIYRPPMEYQYIIDDSQNDHSWDYNTHHIHPVDFENLPESHFTELQSVQSLHAASVHRFPDVESSHFMDPGLGSHHIPLTNPQMTYLPRTSVCYPHNVQPSPLQRSSDEEDPSSRSPPLEVSDEECMRDHISSTTGGEHGNKKKIRLYQFLLDLLRNGGMKDSIWWVDREKGTFQFSSKHKEVLANRWGIQKGNRKR	soluble
